Results published in the supplement of paper PMC7661543.
± gives the standard deviation of the averaged measurements. The effect of the compound repeats well; differences between the knockouts mostly do not.

Test system: BT-20
Assay: relative cell number vs DMSO control (72 h) (% of DMSO); higher = less growth inhibition (more cells)
Method: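 QMAP-Seq: a pool of 5 breast cancer cell lines (ZR-75-1, SKBR3, HCC-38, MDA-MB-231, BT-20), each carrying 12 doxycycline-inducible Cas9 sgRNA perturbations (11 knockouts plus non-targeting sgNT), was treated with compounds for 72 h at four 10-fold doses (10 nM-10 uM or 1 nM-1 uM range). Barcodes were amplified and sequenced, and cell number was interpolated from 293T spike-in standard curves. The result is expressed as % of the median of DMSO wells. Two biological replicates.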

[1] = sgRNA knockout: sgATF3, 1000 nM
[2] = sgRNA knockout: sgATF3, 10000 nM
[3] = sgRNA knockout: sgATF4, 1000 nM
[4] = sgRNA knockout: sgATF4, 10000 nM
[5] = sgRNA knockout: sgATF6, 1000 nM
[6] = sgRNA knockout: sgATF6, 10000 nM
[7] = sgRNA knockout: sgATG7, 1000 nM
[8] = sgRNA knockout: sgATG7, 10000 nM
[9] = sgRNA knockout: sgERN1, 1000 nM
[10] = sgRNA knockout: sgERN1, 10000 nM
[11] = sgRNA knockout: sgHSF1, 1000 nM
[12] = sgRNA knockout: sgHSF1, 10000 nM
[13] = sgRNA knockout: sgHSF2, 1000 nM
[14] = sgRNA knockout: sgHSF2, 10000 nM
[15] = sgRNA knockout: sgKEAP1, 100 nM
[16] = sgRNA knockout: sgKEAP1, 1000 nM
[17] = sgRNA knockout: sgKEAP1, 10000 nM
[18] = sgRNA knockout: sgNFE2L2, 10 nM
[19] = sgRNA knockout: sgNFE2L2, 100 nM
[20] = sgRNA knockout: sgNFE2L2, 1000 nM
[21] = sgRNA knockout: sgNFE2L2, 10000 nM
[22] = sgRNA knockout: sgSLC35F2, 10 nM
[23] = sgRNA knockout: sgSLC35F2, 100 nM
[24] = sgRNA knockout: sgSLC35F2, 1000 nM
[25] = sgRNA knockout: sgSLC35F2, 10000 nM
[26] = sgRNA knockout: sgXBP1, 1000 nM
[27] = sgRNA knockout: sgXBP1, 10000 nM

Compound: CC(=O)Nc1cccc(-n2c(=O)n(C3CC3)c(=O)c3c(Nc4ccc(I)cc4F)n(C)c(=O)c(C)c32)c1 [Trametinib]
- relative cell number (sgRNA knockout: sgATF3, 10 nM): 96.7 ± 17
- relative cell number (sgRNA knockout: sgATF3, 100 nM): 88.8 ± 19
- relative cell number [1]: 89.1 ± 16
- relative cell number [2]: 72.9 ± 9.5
- relative cell number (sgRNA knockout: sgATF4, 10 nM): 95.8 ± 4
- relative cell number (sgRNA knockout: sgATF4, 100 nM): 77.19 ± 0.4
- relative cell number [3]: 91.8 ± 21
- relative cell number [4]: 81.9 ± 17
- relative cell number (sgRNA knockout: sgATF6, 10 nM): 98.7 ± 20
- relative cell number (sgRNA knockout: sgATF6, 100 nM): 77 ± 13
- relative cell number [5]: 103 ± 31
- relative cell number [6]: 53.6 ± 3
- relative cell number (sgRNA knockout: sgATG7, 10 nM): 104 ± 19
- relative cell number (sgRNA knockout: sgATG7, 100 nM): 69.9 ± 3.3
- relative cell number [7]: 86.2 ± 16
- relative cell number [8]: 70.61 ± 0.6
- relative cell number (sgRNA knockout: sgERN1, 10 nM): 97.7 ± 10
- relative cell number (sgRNA knockout: sgERN1, 100 nM): 75.2 ± 7
- relative cell number [9]: 89.7 ± 9.9
- relative cell number [10]: 64.3 ± 14
- relative cell number (sgRNA knockout: sgHSF1, 10 nM): 99.8 ± 41
- relative cell number (sgRNA knockout: sgHSF1, 100 nM): 88.1 ± 8.1
- relative cell number [11]: 95.1 ± 32
- relative cell number [12]: 72.3 ± 5.4
- relative cell number (sgRNA knockout: sgHSF2, 10 nM): 102 ± 21
- relative cell number (sgRNA knockout: sgHSF2, 100 nM): 85.9 ± 1.8
- relative cell number [13]: 85.2 ± 1.5
- relative cell number [14]: 73.7 ± 28
- relative cell number (sgRNA knockout: sgKEAP1, 10 nM): 93.5 ± 18
- relative cell number [15]: 72.5 ± 5.7
- relative cell number [16]: 90.8 ± 4.3
- relative cell number [17]: 86.6 ± 6.2
- relative cell number [18]: 104 ± 28
- relative cell number [19]: 77.2 ± 4.5
- relative cell number [20]: 87.6 ± 10
- relative cell number [21]: 85.5 ± 2.3
- relative cell number [22]: 99.8 ± 34
- relative cell number [23]: 82.3 ± 5.3
- relative cell number [24]: 92.3 ± 10
- relative cell number [25]: 72.1 ± 13
- relative cell number (sgRNA knockout: sgXBP1, 10 nM): 102 ± 24
- relative cell number (sgRNA knockout: sgXBP1, 100 nM): 87.8 ± 14
- relative cell number [26]: 85.6 ± 9.8
- relative cell number [27]: 80.5 ± 11

Compound: Nc1ccccc1NC(=O)c1ccc(CNC(=O)OCc2cccnc2)cc1 [Entinostat]
- relative cell number (sgRNA knockout: sgATF3, 10 nM): 87.8 ± 25
- relative cell number (sgRNA knockout: sgATF3, 100 nM): 99.4 ± 7.6
- relative cell number [1]: 46.5 ± 3
- relative cell number [2]: 17.5 ± 7.3
- relative cell number (sgRNA knockout: sgATF4, 10 nM): 98.4 ± 2.5
- relative cell number (sgRNA knockout: sgATF4, 100 nM): 98.3 ± 26
- relative cell number [3]: 48.4 ± 13
- relative cell number [4]: 14.4 ± 6.1
- relative cell number (sgRNA knockout: sgATF6, 10 nM): 103 ± 23
- relative cell number (sgRNA knockout: sgATF6, 100 nM): 106 ± 16
- relative cell number [5]: 47 ± 2.6
- relative cell number [6]: 11.7 ± 5.4
- relative cell number (sgRNA knockout: sgATG7, 10 nM): 94.1 ± 24
- relative cell number (sgRNA knockout: sgATG7, 100 nM): 109.2 ± 0.11
- relative cell number [7]: 46.1 ± 4.1
- relative cell number [8]: 16.2 ± 7.1
- relative cell number (sgRNA knockout: sgERN1, 10 nM): 102 ± 27
- relative cell number (sgRNA knockout: sgERN1, 100 nM): 106 ± 6.1
- relative cell number [9]: 53.7 ± 3.3
- relative cell number [10]: 17.7 ± 9.2
- relative cell number (sgRNA knockout: sgHSF1, 10 nM): 114 ± 14
- relative cell number (sgRNA knockout: sgHSF1, 100 nM): 104 ± 9.8
- relative cell number [11]: 52.7 ± 4.4
- relative cell number [12]: 13.3 ± 10
- relative cell number (sgRNA knockout: sgHSF2, 10 nM): 89.7 ± 11
- relative cell number (sgRNA knockout: sgHSF2, 100 nM): 124 ± 19
- relative cell number [13]: 42.7 ± 0.62
- relative cell number [14]: 17.1 ± 7.9
- relative cell number (sgRNA knockout: sgKEAP1, 10 nM): 85.9 ± 13
- relative cell number [15]: 99.2 ± 2.8
- relative cell number [16]: 57.5 ± 2.4
- relative cell number [17]: 17.9 ± 6.5
- relative cell number [18]: 100 ± 23
- relative cell number [19]: 108 ± 17
- relative cell number [20]: 41.8 ± 12
- relative cell number [21]: 15.5 ± 4.7
- relative cell number [22]: 80.9 ± 23
- relative cell number [23]: 115 ± 7.7
- relative cell number [24]: 37.78 ± 0.055
- relative cell number [25]: 16.7 ± 8.1
- relative cell number (sgRNA knockout: sgXBP1, 10 nM): 102 ± 9.6
- relative cell number (sgRNA knockout: sgXBP1, 100 nM): 113 ± 26
- relative cell number [26]: 53.4 ± 3.2
- relative cell number [27]: 19.4 ± 10

Compound: CC(C)(C)c1cnc(CSc2cnc(NC(=O)C3CCNCC3)s2)o1 [SNS032]
- relative cell number (sgRNA knockout: sgATF3, 10 nM): 95.5 ± 20
- relative cell number (sgRNA knockout: sgATF3, 100 nM): 85.7 ± 3.4
- relative cell number [1]: 25.76 ± 0.19
- relative cell number [2]: 28.4 ± 2.2
- relative cell number (sgRNA knockout: sgATF4, 10 nM): 93.3 ± 11
- relative cell number (sgRNA knockout: sgATF4, 100 nM): 109 ± 18
- relative cell number [3]: 24.7 ± 1.1
- relative cell number [4]: 29.4 ± 5.3
- relative cell number (sgRNA knockout: sgATF6, 10 nM): 102 ± 18
- relative cell number (sgRNA knockout: sgATF6, 100 nM): 91.3 ± 26
- relative cell number [5]: 22.7 ± 1.3
- relative cell number [6]: 34.2 ± 12
- relative cell number (sgRNA knockout: sgATG7, 10 nM): 84.1 ± 2
- relative cell number (sgRNA knockout: sgATG7, 100 nM): 85.4 ± 2.6
- relative cell number [7]: 24.1 ± 4.3
- relative cell number [8]: 36.3 ± 4.9
- relative cell number (sgRNA knockout: sgERN1, 10 nM): 112.6 ± 0.21
- relative cell number (sgRNA knockout: sgERN1, 100 nM): 83.1 ± 4.2
- relative cell number [9]: 28.9 ± 2.9
- relative cell number [10]: 33.8 ± 4.4
- relative cell number (sgRNA knockout: sgHSF1, 10 nM): 92.3 ± 7.2
- relative cell number (sgRNA knockout: sgHSF1, 100 nM): 77.3 ± 12
- relative cell number [11]: 22.3 ± 4.3
- relative cell number [12]: 36 ± 5.2
- relative cell number (sgRNA knockout: sgHSF2, 10 nM): 88.7 ± 1.1
- relative cell number (sgRNA knockout: sgHSF2, 100 nM): 76.5 ± 23
- relative cell number [13]: 25.7 ± 11
- relative cell number [14]: 32.1 ± 7.6
- relative cell number (sgRNA knockout: sgKEAP1, 10 nM): 102 ± 13
- relative cell number [15]: 86.1 ± 5.2
- relative cell number [16]: 25.5 ± 3
- relative cell number [17]: 35.1 ± 2.3
- relative cell number [18]: 110 ± 12
- relative cell number [19]: 94 ± 5.3
- relative cell number [20]: 31 ± 9.5
- relative cell number [21]: 35.4 ± 2.4
- relative cell number [22]: 91.5 ± 24
- relative cell number [23]: 109.3 ± 0.26
- relative cell number [24]: 26.6 ± 4.8
- relative cell number [25]: 28.21 ± 0.067
- relative cell number (sgRNA knockout: sgXBP1, 10 nM): 108 ± 1.3
- relative cell number (sgRNA knockout: sgXBP1, 100 nM): 91 ± 8.7
- relative cell number [26]: 29 ± 0.35
- relative cell number [27]: 27.8 ± 7
